# Patent US11884647B2, “Compounds and methods for targeting pathogenic blood vessels” (THE REGENTS OF THE UNIVERSITY OF CALIFORNIA, priority 2019, dated 2024)
# The name of at least one read-out is uncertain.
# System: tumor endothelial cells (CT26.CL25 colon cancer tumor)
# Assay: Colon CT26 ex vivo model of tumor angiogenesis
# Type: cell-based, mouse
# Settings: Conc. 10 μm
# Description: This example describes a procedure to prepare a primary tumor angiogenesis model for assessing the efficacy of anti-cancer candidate agents.
# 1. The day before the experiment, spray all necessary tools with 70% ethanol and sterilize them under UV light overnight, including blade, dissecting and micro-dissecting scissors and […]. Place 24-well dishes at 4° C. to pre-chill plates and thaw Matrigel 24 hours before tumor dissection.
# 2. Spray 70% ethanol on working bench. Prepare two sterile petri dishes with 10 mL sterile PBS. Steps 3 and 4 are for mouse tumor models. For fresh human tumor, directly go to step 5.
# 3. Euthanize the tumor-bearing mice. Spray 70% ethanol on the mouse and remove the tumor using sterilized dissecting tools (avoid the fur). Rinse the tumor in petri dish with sterile PBS to remove ethanol and fur. Transfer the tumor to a new petri dish with PBS for dissection. Place the dish on ice.
# 4. Using pre-chilled sterile pipet tips to seed regular Matrigel in 24 well plates on ice. Matrigel (30 μL) is dropped in the middle of each well without touching the edge of the well (avoid introducing bubbles if possible).
# 5. Cut the tumor in halves using the sterile blade. Identify and isolate healthy tumor tissue that is not necrotic and is within the tumor capsule. Cut the healthy tumor tissue into small pieces. For instance, a suitable size for the tumor tissue is 0.5 mm (H)×0.5 mm (L)×0.3 mm (D) with a total volume of 0.075 mm^3.
# 6. Gently transfer and embed each tumor piece in the Matrigel drop in the 24-well plate. Place the embedded piece in the bottom and middle of each Matrigel drop. Keep the plate on ice all the time.
# 7. After seeding the tumor pieces, plates are incubated in a 37° C. cell culture incubator without medium for 10 minutes in order for the Matrigel to solidify.
# 8. Endothelial Growth Medium (0.5 mL) is added to each well and incubated at 37° C. with 5% CO2. Wait until the new endothelial cells have grown out of the tumor or are larger than 3 mm in diameter until treatment. This usually takes 4 days for the LL2 Lewis lung cancer model and 7 days for the CT26 colon cancer model. For human tumor models, the growth time is typically 2-3 weeks, depending on the tumor type. Media is changed every 4 days during prolonged culture. Typically, when the tumor tissue grows to 2 mm in diameter, it is good for drug testing. A size of about 3 mm in diameter can make visualization easier.
# 9. When the assay is ready to be analyzed for cell death (e.g., 48 hours after drug addition), prepare the dye mixture by mixing 6 μL of green dye to stain live cells (5 mg/mL Fluorescein diacetate or FDA in DMSO) with 30 μL of red dye (2.5 mg/mL Propidium iodide or PI in PBS) to stain dead cells in an Eppendorf tube. The FDA dye needs to be stored frozen in a −20° C. freezer because it has a labile ester bond.
# 10. Add 1 μL of the dye mixture to each well of the 24-well dish. It is usually performed one 24-well dish at a time given the amount of time needed to take pictures (the green dye is not as stable in the cells in the long term).
# 11. Gently rock the dish a few times to mix the dye with the media in the wells and incubate the dish at 37° C. for 10 min (too long incubation can make the green signal too intense).
# 12. Wash each well with 0.5 mL of sterile PBS and then add 0.5 mL of phenol red free SFM to each well. Alternatively 0.5 mL of regular Endothelial Cell Growth Media can be added to each well if this well needs to be continuously maintained after the experiment.
# 13. Look through all wells on an inverted microscope using the 2× objective lens to observe morphological changes.
# 14. Taking pictures in the red and green channels would allow not only the recording of the result but also more accurate quantitation of the result. To take pictures for all the wells, first pick a well that has robust red and green signals. […]
row,Structure (SMILES),48 hrs (morphology observations after 48 hours)
1,"CCCCOc1ccc(S(=O)(=O)c2cnc3ccc([S+](C)[O-])cc3c2N2CCC(N3CCCN(C)CC3)CC2)cc1 (stereo not drawn) [compound 241, 3-((4-butoxyphenyl)sulfonyl)-4-(4-(4-methyl-1,4-diazepan-1-yl)piperidin-1-yl)-6-(methylsulfinyl)quinoline]",0
2,"O=S(=O)(c1ccc(OC(F)(F)F)cc1)c1cnc2ccc(OC(F)(F)F)cc2c1-n1cncn1 [compound 91, 4-(1H-1,2,4-triazol-1-yl)-6-(trifluoromethoxy)-3-((4-(trifluoromethoxy)phenyl)sulfonyl)quinoline]",*** (100% of endothelial cells vesicularize in cell shape)

# Same assay, conditions: Conc. 20 μm
row,Structure (SMILES),48 hrs (morphology observations after 48 hours)
1,"CCc1ccc(S(=O)(=O)c2cnc3ccc(OC(F)(F)F)cc3c2-n2cnc(C)c2)cc1 [compound 117, 3-((4-ethylphenyl)sulfonyl)-4-(4-methyl-1H-imidazol-1-yl)-6-(trifluoromethoxy)quinoline]",*** (100% of endothelial cells vesicularize in cell shape)

# Same assay, conditions: Conc. 40 μm
row,Structure (SMILES),48 hrs (morphology observations after 48 hours)
1,"CCCCCCCOc1ccc(S(=O)(=O)c2cnc3ccc([S+](C)[O-])cc3c2N2CCCN(C)CC2)cc1 (stereo not drawn) [compound 220, 3-((4-(heptyloxy)phenyl)sulfonyl)-4-(4-methyl-1,4-diazepan-1-yl)-6-(methylsulfinyl)quinoline]",**** (100% of endothelial cells vesicularize in cell shape and look flattened in morphology (indicating disintegration of the cell body))
2,"CCOC(=O)c1ccc2ncc(S(=O)(=O)c3ccc(OC)cc3)c(N3CCC(N4CCC(O)CC4)CC3)c2c1 [compound 138, ethyl 4-(4-hydroxy-[1,4′-bipiperidin]-1′-yl)-3-((4-methoxyphenyl)sulfonyl)quinoline-6-carboxylate]",0
3,"CCc1ccc(S(=O)(=O)c2cnc3ccc(OC(F)(F)F)cc3c2N2CCCC(O)C2)cc1 (stereo not drawn) [compound 82, 1-(3-((4-ethylphenyl)sulfonyl)-6-(trifluoromethoxy)quinolin-4-yl)piperidin-3-ol]",0
4,"CCCCOc1ccc2ncc(S(=O)(=O)c3ccc(OC)c(OC)c3)c(N(CC)CC)c2c1 [compound 123, 6-butoxy-3-((3,4-dimethoxyphenyl)sulfonyl)-N,N-diethylquinolin-4-amine]",0
5,"CCc1ccc(S(=O)(=O)c2cnc3ccc([N+](=O)[O-])cc3c2N2CCCN(C)CC2)cc1 [compound 76, 3-((4-ethylphenyl)sulfonyl)-4-(4-methyl-1,4-diazepan-1-yl)-6-nitroquinoline]",** (more than 50% but less than 100% of endothelial cells vesicularize in cell shape)
6,"CCc1ccc(S(=O)(=O)c2cnc3ccc([N+](=O)[O-])cc3c2N(CC)CC)cc1 [compound 78, N,N-diethyl-3-((4-ethylphenyl)sulfonyl)-6-nitroquinolin-4-amine]",0
7,"CCc1ccc(S(=O)(=O)c2cnc3ccc(OC(F)(F)F)cc3c2N2CCC(O)(c3ccc4c(c3)OCO4)CC2)cc1 [compound 147, 4-(benzo[d][1,3]dioxol-5-yl)-1-(3-((4-ethylphenyl)sulfonyl)-6-(trifluoromethoxy)quinolin-4-yl)piperidin-4-ol]",0
8,"CCOC(=O)C1CCN(c2c(S(=O)(=O)c3ccc(CC)cc3)cnc3ccc(OC(F)(F)F)cc23)CC1 [compound 47, ethyl 1-(3-((4-ethylphenyl)sulfonyl)-6-(trifluoromethoxy)quinolin-4-yl)piperidine-4-carboxylate]",0
9,"CCOC(=O)c1ccc2ncc(S(=O)(=O)c3ccc(CC)cc3)c(N3CCCN(CCN(CC)CC)CC3)c2c1 [compound 131, ethyl 4-(4-(2-(diethylamino)ethyl)-1,4-diazepan-1-yl)-3-((4-ethylphenyl)sulfonyl)quinoline-6-carboxylate]",** (more than 50% but less than 100% of endothelial cells vesicularize in cell shape)
10,"COc1ccc(S(=O)(=O)c2cnc3ccc(CC#N)cc3c2NN2CCN(C)CC2)cc1 [compound 99, 2-(3-((4-methoxyphenyl)sulfonyl)-4-((4-methylpiperazin-1-yl)amino)quinolin-6-yl)acetonitrile]",0
11,"CCCCN(CCCC)c1c(S(=O)(=O)c2ccc(OC)cc2)cnc2ccc(C(=O)OCC)cc12 [compound 155, ethyl 4-(dibutylamino)-3-((4-methoxyphenyl)sulfonyl)quinoline-6-carboxylate]",*** (100% of endothelial cells vesicularize in cell shape)
12,"CCc1ccc(S(=O)(=O)c2cnc3ccc(OC(F)(F)F)cc3c2NN2CCN(C)CC2)cc1 [compound 50, 3-((4-ethylphenyl)sulfonyl)-N-(4-methylpiperazin-1-yl)-6-(trifluoromethoxy)quinolin-4-amine]",*** (100% of endothelial cells vesicularize in cell shape)
13,"CCc1ccc(C2(O)CCN(c3c(S(=O)(=O)c4ccc(OC)cc4)cnc4ccc(OC(F)(F)F)cc34)CC2)cc1 [compound 129, 4-(4-ethylphenyl)-1-(3-((4-methoxyphenyl)sulfonyl)-6-(trifluoromethoxy)quinolin-4-yl)piperidin-4-ol]",0
14,"CCCCOc1ccc(S(=O)(=O)c2cnc3ccc(C(=O)OCC)cc3c2N2CCC(N3CCOCC3)CC2)cc1 [compound 212, ethyl 3-((4-butoxyphenyl)sulfonyl)-4-(4-morpholinopiperidin-1-yl)quinoline-6-carboxylate]",0
15,"COc1ccc(S(=O)(=O)c2cnc3ccc(OC(F)(F)F)cc3c2NN2CCN(C)CC2)cc1OC [compound 88, 3-((3,4-dimethoxyphenyl)sulfonyl)-N-(4-methylpiperazin-1-yl)-6-(trifluoromethoxy)quinolin-4-amine]",*** (100% of endothelial cells vesicularize in cell shape)
16,"COc1ccc(S(=O)(=O)c2cnc3ccc(OC(F)(F)F)cc3c2NCCO)cc1OC [compound 69, 2-((3-((3,4-dimethoxyphenyl)sulfonyl)-6-(trifluoromethoxy)quinolin-4-yl)amino)ethan-1-ol]",0
17,"CCOC(=O)c1ccc2ncc(S(=O)(=O)c3ccc(CC)cc3)c(N3CCCC(O)C3)c2c1 (stereo not drawn) [compound 135, ethyl 3-((4-ethylphenyl)sulfonyl)-4-(3-hydroxypiperidin-1-yl)quinoline-6-carboxylate]",0
18,"CCc1ccc(S(=O)(=O)c2cnc3ccc(OC(F)(F)F)cc3c2N2CCC(O)(c3cccc(OC)c3)CC2)cc1 [compound 146, 1-(3-((4-ethylphenyl)sulfonyl)-6-(trifluoromethoxy)quinolin-4-yl)-4-(3-methoxyphenyl)piperidin-4-ol]",0
19,"CCOC(=O)c1ccc2ncc(S(=O)(=O)c3ccc(CC)cc3)c(N3CCC(N4CCC(O)CC4)CC3)c2c1 [compound 130, ethyl 3-((4-ethylphenyl)sulfonyl)-4-(4-hydroxy-[1,4′-bipiperidin]-1′-yl)quinoline-6-carboxylate]",0
20,"COc1ccc(S(=O)(=O)c2cnc3ccc(OC(F)(F)F)cc3c2N(CCO)CCO)cc1OC [compound 72, 2,2′-((3-((3,4-dimethoxyphenyl)sulfonyl)-6-(trifluoromethoxy)quinolin-4-yl)azanediyl)bis(ethan-1-ol)]",0
21,"COc1ccc(S(=O)(=O)c2cnc3ccc(OC(F)(F)F)cc3c2N2CCC(O)CC2)cc1OC [compound 58, 1-(3-((3,4-dimethoxyphenyl)sulfonyl)-6-(trifluoromethoxy)quinolin-4-yl)piperidin-4-ol]",* (50% or less of cells vesicularize in cell shape)
